Values of other authors as cited in patent US20070190132A1, “Pharmaceutical compositions for oral and topical administration” (IVAX-CR a.s., priority 1999, published 2007).

Settings: immediately after preparation

CC(=O)O[C@H]1C(=O)[C@@]2(C)[C@H]([C@H](OC(=O)c3ccccc3)[C@]3(O)C[C@H](OC(=O)[C@H](O)[C@@H](NC(=O)c4ccccc4)c4ccccc4)C(C)=C1C3(C)C)[C@]1(OC(C)=O)CO[C@@H]1C[C@@H]2O [paclitaxel]
solubility in water: about 5 μg/ml
